Measurements published in PMC12667529.
No constants are given. Whether binding was seen depends on the method and setting. Some results given as binding are weak or reduced against the parent protein; the word gives no strength.

Amino acid sequences for entries named in this document (tags omitted).
UniProt Q13148: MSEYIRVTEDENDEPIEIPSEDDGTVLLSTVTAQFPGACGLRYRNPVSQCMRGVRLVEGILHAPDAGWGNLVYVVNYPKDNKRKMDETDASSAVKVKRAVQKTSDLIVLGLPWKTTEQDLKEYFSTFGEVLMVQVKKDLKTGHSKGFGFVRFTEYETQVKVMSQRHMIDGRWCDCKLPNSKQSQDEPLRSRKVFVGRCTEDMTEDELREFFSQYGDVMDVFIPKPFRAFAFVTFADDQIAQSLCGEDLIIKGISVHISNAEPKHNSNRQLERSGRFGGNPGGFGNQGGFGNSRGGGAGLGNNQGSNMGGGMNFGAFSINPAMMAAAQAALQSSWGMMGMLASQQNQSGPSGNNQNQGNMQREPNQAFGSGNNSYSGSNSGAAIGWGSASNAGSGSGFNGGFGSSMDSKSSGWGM

Molecular target: TAR DNA-binding protein 43 (human (endogenous in post-mortem brain)) (UniProt Q13148)
Assay: single-molecule pulldown (SiMPull); CAP1-SiMPull with colabelling: aggregates of human brain extracts captured on biotinylated CAP1, detected with a fluorescent TDP-43 antibody and a second fluorescent antibody against the protein of interest; spots within a 4-pixel radius counted as colabelled; MND TDP cohort compared with controls

B1: calnexin (protein, UniProt P27824 21-592)
chain: HDGHDDDVIDIEDDLDDVIEEVEDSKPDTTAPPSSPKVTYKAPVPTGEVYFADSFDRGTLSGWILSKAKKDDTDDEIAKYDGKWEVEEMKESKLPGDKGLVLMSRAKHHAISAKLNKPFLFDTKPLIVQYEVNFQNGIECGGAYVKLLSKTPELNLDQFHDKTPYTIMFGPDKCGEDYKLHFIFRHKNPKTGIYEEKHAKRPDADLKTYFTDKKTHLYTLILNPDNSFEILVDQSVVNSGNLLNDMTPPVNPSREIEDPEDRKPEDWDERPKIPDPEAVKPDDWDEDAPAKIPDEEATKPEGWLDDEPEYVPDPDAEKPEDWDEDMDGEWEAPQIANPRCESAPGCGVWQRPVIDNPNYKGKWKPPMIDNPSYQGIWKPRKIPNPDFFEDLEPFRMTPFSAIGLELWSMTSDIFFDNFIICADRRIVDDWANDGWGLKKAADGAAEPGVVGQMIEAAEERPWLWVVYILTVALPVFLVILFCCSGKKQTSGMEYKKTDAPQPDVKEEEEEKEEEKDKGDEEEEGEEKLEEKQKSDAEEDGGTVSQEEEDRKPKAEEDEILNRSPRNRKPRRE
- binding: binds
